Test results published in paper PMC8062543 (Scientific Reports, 2021).
No constants are given. Whether binding was seen depends on the method and setting. Tags and fused reporters may be left off the sequences shown.

Target: gluconate kinase (GntK) from Methylotuvimicrobium alcaliphilum 20Z (Methylotuvimicrobium alcaliphilum 20Z) (UniProt G4T089)
Assay: SEC; gel filtration on XK 16/100 Superdex 200, 0.02 M Tris-HCl pH 7.0 with 0.5 M NaCl, calibrated with protein markers; GDHs with the cut-off His-tag; both purified

binding: no binding
B1: gluconate kinase (GntK) from Methylotuvimicrobium alcaliphilum 20Z (enzyme, UniProt G4T089 1-181)
chain: MNSSNDSRHRAARVVIIGGVSGCGKSTVGRALAEYLGWSFIEGDAFHSEANIEKMRRGEALDDNDRRPWLESLHNEIIYHLDRGISAVMACSALKASYREILCGDEVNVSFVFLSCSRESLHRRLTTRQGHFLGAELLDSQLAAFESSHDILLIDSEQAVETLVESIADWLAYSGSECDET
